Measured values published in PubChem BioAssay AID540276 (National Center for Advancing Translational Sciences (NCATS), 2011).
Screen size: about 300,000 compounds; about 5,400 (1.8%) were called active. The shares of active, inactive and inconclusive entries below differ from those in the screen. Calls follow the shape of the full dose curve; tested in HEK293 cells. Where the call is inconclusive, the potency comes from a doubtful curve fit.

assay: qHTS for inhibitors of binding or entry into cells for Marburg Virus; details: Marburg virus pseudotyped entry inhibition, cell reporter; activity change, negative = inhibition: at 37.8 µM (top of the series) unless noted
% is scaled to controls: 0 for no effect and ±100 for the full control effect; potency is read from the fitted curve at half-maximal effect.

Compound	Potency	activity change, negative = inhibition
COc1ccc(OC)c(N(CC(=O)N2CCc3ccccc3C2)S(C)(=O)=O)c1	inconclusive: 2.06 µM [activator, partial curve, poor fit]	–
COc1ccc(-c2noc(CCC(=O)Nc3cccnc3)n2)cc1OC	–	inactive: 0%
Cc1ccc(-c2cc(NC(=O)CCl)n(-c3ccccc3)n2)cc1	–	inactive: -24.6% [at 46.1 µM]
COc1cc(Nc2ccccc2Cl)c([N+](=O)[O-])nc1[N+](=O)[O-]	inconclusive: 29.1 µM [inhibitor, single point]	–
O=C(NCCC(=O)N1CCN(c2ccccc2F)CC1)c1ccco1	inconclusive: 12.6 µM [activator, single point]	–
COc1ccc(CCNC(=O)c2cc3sccc3n2Cc2ccc(Cl)cc2)cc1OC	inconclusive: 35.5 µM [inhibitor, single point]	–
COc1cccc(C(=O)COc2ccc(NC(=O)c3cccs3)cc2)c1	inconclusive: 8.91 µM [inhibitor, partial curve]	–
Cc1ccc(S(=O)(=O)CCC(=O)OCC(=O)Nc2cc(S(=O)(=O)N3CCOCC3)ccc2Cl)cc1	–	inactive: -3.15%
COc1ccc(C2Nc3ccccc3C(=O)N2NS(C)(=O)=O)cc1 (stereo not given)	inconclusive: 1.58 µM [activator, partial curve, poor fit]	–
CC(=O)Nc1ccc(NC(=O)COC(=O)[C@@H](NC(=O)c2ccc(F)cc2)C(C)C)cc1	inconclusive: 1.58 µM [inhibitor, partial curve, poor fit]	–
COc1ccc(OC)c(NC(=O)CSc2nnc(CNC(=O)c3cc(OC)c(OC)c(OC)c3)o2)c1	inconclusive: 35.5 µM [inhibitor, partial curve, poor fit]	–
COc1ccc(-n2ncc3c(NCc4ccco4)ncnc32)cc1	inconclusive: 0.073 µM [activator, full curve, poor fit]	–
O=C(NNS(=O)(=O)c1ccccc1)c1csc(-c2cccnc2)n1	inconclusive: 5.01 µM [inhibitor, partial curve, poor fit]	–
Cc1csc(=O)n1CCC(=O)OCC(=O)NNC(=O)c1ccccc1	–	inactive: -10.2%
CNC(=O)Oc1cccc2ccccc12	inconclusive: 3.16 µM [activator, partial curve, poor fit]	–
COc1ccc(NC(=O)CCNS(=O)(=O)c2cccc3nsnc23)cc1Cl	–	inactive: 6.4% [at 46.1 µM]
C/C(CC(=O)NCc1ccc(Cl)cc1)=N\NC(=O)c1ccccc1F	inconclusive: 35.5 µM [inhibitor, single point]	–
Cc1ccc(C)c(NC(=O)CSc2nccn2Cc2ccco2)c1	–	inactive: 16.5% [at 46.1 µM]
CCN1C(=O)c2ccccc2S(=O)c2ccc(C(=O)NCc3ccccn3)cc21 (stereo not given)	–	inactive: -19.4%
COc1ccc(NC(=S)NC23CN4CN(CN(C4)C2)C3)c(OC)c1	inconclusive: 0.891 µM [inhibitor, partial curve, poor fit]	–
O=C(CSC1=NNC(c2ccccn2)S1)Nc1cccc(Cl)c1 (stereo not given)	inconclusive: 35.5 µM [inhibitor, single point]	–
COc1cccc(-n2c(C)nn(CCOc3ccccc3)c2=O)c1	–	inactive: 0.772% [at 46.1 µM]
COC(=O)c1sc2cc(C(F)(F)F)cnc2c1-c1cccnc1	inconclusive: 3.26 µM [activator, partial curve, poor fit]	–

Compound	Potency	activity change, negative = inhibition
CCCN(CC(=O)Nc1ccccc1C)C(=O)c1ccc(C)c(S(=O)(=O)N2CCCCC2)c1	inconclusive: 35.5 µM [inhibitor, single point]	–
Cc1cc(C)n(CC(C)NCc2cn[nH]c2-c2ccc(C)c(C)c2)n1 (stereo not given)	inconclusive: 31.6 µM [inhibitor, single point]	–
Cc1noc(C)c1COC(=O)CCN1c2ccccc2Sc2ccccc21	inconclusive: 0.206 µM [inhibitor, single point]	–
NS(=O)(=O)c1ccc(CCNC(=O)COC(=O)/C=C/c2ccc(OC(F)F)cc2)cc1	inconclusive: 12.6 µM [activator, single point]	–
Cc1ccsc1/C=C/c1ccc2cccc(O)c2n1	inconclusive: 29.1 µM [inhibitor, single point]	–
CCOc1ccc(Cc2nc(C)c(CC(=O)N3CCCCC3)c(=O)[nH]2)cc1	–	inactive: 15.8%
O=S(=O)(NCC1(N2CCOCC2)CCCCC1)c1ccc(F)c(F)c1F	–	inactive: -0.221%
CC(C)(C)c1ccc(C(=O)NNc2cc(N3CCCCC3)nc(N3CCCCC3)n2)cc1	inconclusive: 0.146 µM [inhibitor, full curve, poor fit]	–
CCCc1cc(=O)[nH]c(SCC(=O)c2ccc(S(=O)(=O)N3CCCC3)cc2)n1	inconclusive: 1.46 µM [activator, partial curve, poor fit]	–
NC(=O)N\N=C/C=C/C=C/c1ccc(F)cc1	–	inactive: 16.2%
Cc1cc(=O)[nH]c(N/N=C/c2c(C)nn(-c3ccccc3)c2C)n1	–	inactive: 6.43% [at 46.1 µM]
CC(C)N(CCNC(=O)COc1ccc2oc3c(c2c1)CCCC3)C(C)C	inconclusive: 12.6 µM [inhibitor, partial curve, poor fit]	–
CC1CC(NC(=O)c2ncn[nH]2)CC(C)(C)C1 (stereo not given)	–	inactive: -9.94%
O=C(Nc1ccnn1C1CCN(C2CCC2)CC1)c1ccccc1Cl	–	inactive: -0.856% [at 46.1 µM]
CC1(C)CC(=O)C2=C(C1)OC(N)=C(C#N)C2c1ccc2c(c1)OCO2 (stereo not given)	–	inactive: -0.593%
COCCCNC(=O)C[C@H]1C[C@H](C(=O)N2CCCCC2)[C@@]2(CCc3ccccc3)c3[nH]c4ccc(Cl)cc4c3CCN2C1=O	–	inactive: 0.477%
COc1cccc(CN2CCN(c3ccc(F)cc3)C2=O)c1	–	inactive: 0.192% [at 46.1 µM]
CC(C)(C)OC(=O)N1CCCC(C(=O)Nc2ccc(C(=O)NCCc3ccccc3)cc2)C1 (stereo not given)	inconclusive: 8.87 µM [activator, full curve, poor fit]	–
O=C(NCCc1ccccc1)c1ccccc1F	inconclusive: 10 µM [inhibitor, partial curve, poor fit]	–
COc1ccc2c(C)cc(=S)[nH]c2c1	inconclusive: 14.1 µM [inhibitor, single point]	–
COc1ccc(CCN(C(=O)C(F)(F)F)C(C(=O)NC2CCCCC2)c2ccc(C)s2)cc1OC (stereo not given)	–	inactive: -11%
Cn1c(/C=C/c2cccc([N+](=O)[O-])c2)c([N+](=O)[O-])c(=O)n(C)c1=O	active: 8.91 µM	–
